In this data set the target is T1, alpha-lactalbumin (α-La) (Bos taurus (bovine milk)) (UniProt P00711).
T1 sequence (looked up, limits assumed): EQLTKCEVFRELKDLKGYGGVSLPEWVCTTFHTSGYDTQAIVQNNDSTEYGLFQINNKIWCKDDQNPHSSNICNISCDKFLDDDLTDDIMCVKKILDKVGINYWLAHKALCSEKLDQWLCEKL
Description: fluorescence graphene oxide (GO) assay. The settings on record: 50 mM Tris-HCl, 5 mM KCl, 100 mM NaCl, 1 mM MgCl2, pH 7.4; 100 nM FAM-aptamer, 0-400 ug/ml α-La, 1 h in the dark, then GO 15 min; commercial protein; label: 5'-FAM; single-stranded DNA.

A weaker result is weaker than the reference pair of the same experiment. Protein sequences can lack the tags named with them.

For AGTAGCTCAGAGGTCAGATGGTGATGCGAA [MLA-1t], the binding result is listed as “binds more weakly”.

Values taken from paper PMC9577226, “In vitro selection and optimization of high-affinity aptamer for milk allergen α-lactalbumin and its application in dual-mode detection”.
